{
  "source": "paper PMC2633459",
  "about": "(Molecular Vision, 2009)",
  "binders": {"B1": {"name": "doubly deamidated mutant βA3 Q85E/Q180E (natural protein, human, UniProt P05813 1-215, looked up)", "chain": "METQAEQQELETLPTTKMAQTNPTPGSLGPWKITIYDQENFQGKRMEFTSSCPNVSERSFDNVRSLKVESGAWIGYEHTSFCGQEFILERGEYPRWDAWSGSNAYHIERLMSFRPICSANHKESKMTIFEKENFIGRQWEISDDYPSLQAMGWFNNEVGSMKIQSGAWVCYQYPGYRGYEYILECDHHGGDYKHWREWGSHAQTSQIQSIRRIQQ", "notes": "human βA3-crystallin with Q85E and Q180E (mimic of deamidation), recombinant; Homo-dimer by SEC-MALS at 37 °C; precipitates at 55 °C when alone; also called DM βA3; βA3 DM; source: E. coli, purified (successive ion-exchange chromatography)"}},
  "target": "T1, wild type human βB1-crystallin (human, UniProt P53674 1-252)",
  "T1 construct": "human βB1-crystallin, wild type, recombinant; Mixture of monomers and dimers at the concentrations of the 1:1 experiments; dimer at the higher concentration of the 5:1 experiment; source: E. coli, purified (successive ion-exchange chromatography)",
  "T1 sequence (looked up)": "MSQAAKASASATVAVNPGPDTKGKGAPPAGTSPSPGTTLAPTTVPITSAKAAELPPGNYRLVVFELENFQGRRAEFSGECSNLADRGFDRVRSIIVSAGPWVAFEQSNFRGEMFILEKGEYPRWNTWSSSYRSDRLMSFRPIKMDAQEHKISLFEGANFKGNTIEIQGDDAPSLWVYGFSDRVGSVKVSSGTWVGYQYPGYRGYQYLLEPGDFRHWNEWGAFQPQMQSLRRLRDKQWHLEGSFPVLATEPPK",
  "assay": "SEC-MALS; 1:1 molar ratio, mixture subjected to SEC-MALS immediately upon mixing (0 min); same buffer; both purified",
  "note": "No constants are given. Whether binding was seen depends on the method and setting.",
  "data": [
    {"binder": "B1", "values": [
      {"measurement": "binding", "value": "no binding (condition: immediately upon mixing (0 min))"}
    ]}
  ]
}
